Experimental data from the supplement of paper PMC12819154, “High-throughput peptide-centric local stability assay extends protein–ligand identification to membrane proteins, tissues and bacteria” (Nature Structural & Molecular Biology, 2025).
The list shows a part of the results. Most values lie at the level of the controls, where differences are scatter.

Chains of the proteins cited; added tags and fusions are not shown. Lines headed by an entry give the natural chain unless they say otherwise; changes in a name come on top.
UniProt Q8IZ07: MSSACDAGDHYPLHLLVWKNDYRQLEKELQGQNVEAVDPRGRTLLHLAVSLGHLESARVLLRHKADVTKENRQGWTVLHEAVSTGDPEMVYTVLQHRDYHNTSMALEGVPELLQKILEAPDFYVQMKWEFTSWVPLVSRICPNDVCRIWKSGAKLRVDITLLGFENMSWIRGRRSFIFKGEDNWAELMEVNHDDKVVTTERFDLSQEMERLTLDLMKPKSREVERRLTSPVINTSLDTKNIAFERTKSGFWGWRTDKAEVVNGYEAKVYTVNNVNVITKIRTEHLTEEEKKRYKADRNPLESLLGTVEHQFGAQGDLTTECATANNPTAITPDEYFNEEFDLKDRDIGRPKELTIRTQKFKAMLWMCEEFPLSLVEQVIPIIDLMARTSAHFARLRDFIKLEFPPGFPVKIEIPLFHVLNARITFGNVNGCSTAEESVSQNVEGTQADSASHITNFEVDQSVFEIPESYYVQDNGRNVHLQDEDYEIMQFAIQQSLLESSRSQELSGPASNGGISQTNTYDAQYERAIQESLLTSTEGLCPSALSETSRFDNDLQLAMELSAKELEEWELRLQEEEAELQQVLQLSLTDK
UniProt Q86XK2: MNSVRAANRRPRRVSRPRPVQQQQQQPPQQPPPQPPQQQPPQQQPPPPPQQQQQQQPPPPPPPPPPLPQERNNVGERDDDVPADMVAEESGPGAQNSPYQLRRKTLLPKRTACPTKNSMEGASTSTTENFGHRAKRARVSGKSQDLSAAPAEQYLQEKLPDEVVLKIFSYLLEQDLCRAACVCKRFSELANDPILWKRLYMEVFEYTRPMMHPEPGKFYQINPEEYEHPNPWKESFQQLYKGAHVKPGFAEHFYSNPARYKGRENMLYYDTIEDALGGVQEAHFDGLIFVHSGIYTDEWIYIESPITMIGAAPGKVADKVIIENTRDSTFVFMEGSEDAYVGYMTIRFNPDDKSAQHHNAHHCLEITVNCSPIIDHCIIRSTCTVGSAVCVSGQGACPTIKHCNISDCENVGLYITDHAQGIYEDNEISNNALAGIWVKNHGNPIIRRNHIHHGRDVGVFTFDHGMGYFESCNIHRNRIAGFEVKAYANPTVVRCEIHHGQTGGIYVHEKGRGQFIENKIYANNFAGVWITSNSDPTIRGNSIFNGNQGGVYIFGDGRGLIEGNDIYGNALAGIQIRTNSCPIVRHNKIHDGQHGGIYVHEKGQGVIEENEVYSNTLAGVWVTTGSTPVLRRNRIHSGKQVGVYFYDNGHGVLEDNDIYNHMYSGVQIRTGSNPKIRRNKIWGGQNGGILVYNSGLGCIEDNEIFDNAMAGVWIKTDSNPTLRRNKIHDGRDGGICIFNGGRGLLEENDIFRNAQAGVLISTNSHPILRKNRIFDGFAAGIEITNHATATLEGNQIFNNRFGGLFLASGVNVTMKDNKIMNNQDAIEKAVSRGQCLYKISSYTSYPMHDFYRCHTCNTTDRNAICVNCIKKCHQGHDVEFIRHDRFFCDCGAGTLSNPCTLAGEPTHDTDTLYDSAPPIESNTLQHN
UniProt Q8IUF8: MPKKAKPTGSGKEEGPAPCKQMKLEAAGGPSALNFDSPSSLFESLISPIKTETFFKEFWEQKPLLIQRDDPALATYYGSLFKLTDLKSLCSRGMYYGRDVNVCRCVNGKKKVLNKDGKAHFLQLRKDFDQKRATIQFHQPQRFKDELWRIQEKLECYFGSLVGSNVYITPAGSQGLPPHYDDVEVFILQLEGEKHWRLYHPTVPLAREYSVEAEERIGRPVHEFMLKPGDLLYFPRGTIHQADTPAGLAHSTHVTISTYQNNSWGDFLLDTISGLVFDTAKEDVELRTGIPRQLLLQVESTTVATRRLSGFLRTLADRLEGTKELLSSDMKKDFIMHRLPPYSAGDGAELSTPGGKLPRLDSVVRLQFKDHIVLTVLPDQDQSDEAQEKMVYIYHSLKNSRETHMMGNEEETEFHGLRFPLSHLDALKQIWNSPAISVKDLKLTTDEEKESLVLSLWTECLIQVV
UniProt Q8IWU2: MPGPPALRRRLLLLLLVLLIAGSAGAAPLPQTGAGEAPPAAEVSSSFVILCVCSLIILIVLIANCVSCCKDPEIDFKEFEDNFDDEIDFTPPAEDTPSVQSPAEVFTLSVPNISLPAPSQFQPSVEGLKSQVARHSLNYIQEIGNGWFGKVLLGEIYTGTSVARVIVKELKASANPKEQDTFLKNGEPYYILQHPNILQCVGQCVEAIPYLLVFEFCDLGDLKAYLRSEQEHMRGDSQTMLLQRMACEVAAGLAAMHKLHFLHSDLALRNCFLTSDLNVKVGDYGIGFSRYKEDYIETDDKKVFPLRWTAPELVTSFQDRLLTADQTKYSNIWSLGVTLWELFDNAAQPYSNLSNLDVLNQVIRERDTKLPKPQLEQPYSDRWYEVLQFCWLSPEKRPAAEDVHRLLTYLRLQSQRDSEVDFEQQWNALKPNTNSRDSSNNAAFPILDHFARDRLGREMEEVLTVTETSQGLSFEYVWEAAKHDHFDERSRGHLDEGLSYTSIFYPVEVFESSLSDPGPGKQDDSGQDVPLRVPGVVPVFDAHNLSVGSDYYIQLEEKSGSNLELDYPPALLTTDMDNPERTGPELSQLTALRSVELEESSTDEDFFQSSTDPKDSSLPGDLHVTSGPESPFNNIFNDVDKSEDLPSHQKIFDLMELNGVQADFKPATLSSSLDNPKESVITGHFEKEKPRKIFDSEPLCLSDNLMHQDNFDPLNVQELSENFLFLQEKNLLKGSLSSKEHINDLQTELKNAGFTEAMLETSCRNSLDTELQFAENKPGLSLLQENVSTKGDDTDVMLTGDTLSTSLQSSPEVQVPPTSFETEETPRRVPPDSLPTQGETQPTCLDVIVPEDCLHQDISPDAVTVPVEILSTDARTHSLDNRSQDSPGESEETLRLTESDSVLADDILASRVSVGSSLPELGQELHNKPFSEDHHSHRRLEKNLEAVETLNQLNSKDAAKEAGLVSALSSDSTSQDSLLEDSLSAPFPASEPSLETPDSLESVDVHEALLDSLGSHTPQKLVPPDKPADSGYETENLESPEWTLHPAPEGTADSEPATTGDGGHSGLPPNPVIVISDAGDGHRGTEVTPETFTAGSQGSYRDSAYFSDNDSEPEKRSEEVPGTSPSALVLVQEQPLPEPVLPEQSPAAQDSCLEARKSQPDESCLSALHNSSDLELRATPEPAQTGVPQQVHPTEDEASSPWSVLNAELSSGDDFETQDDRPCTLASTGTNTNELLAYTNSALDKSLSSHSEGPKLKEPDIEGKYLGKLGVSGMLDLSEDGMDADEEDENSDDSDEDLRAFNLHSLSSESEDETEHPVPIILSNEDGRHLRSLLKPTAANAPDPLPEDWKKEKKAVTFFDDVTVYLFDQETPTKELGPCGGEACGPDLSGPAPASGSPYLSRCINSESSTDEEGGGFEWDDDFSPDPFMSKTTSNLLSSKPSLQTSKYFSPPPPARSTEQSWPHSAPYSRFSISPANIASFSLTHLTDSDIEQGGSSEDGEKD
UniProt Q86Y82: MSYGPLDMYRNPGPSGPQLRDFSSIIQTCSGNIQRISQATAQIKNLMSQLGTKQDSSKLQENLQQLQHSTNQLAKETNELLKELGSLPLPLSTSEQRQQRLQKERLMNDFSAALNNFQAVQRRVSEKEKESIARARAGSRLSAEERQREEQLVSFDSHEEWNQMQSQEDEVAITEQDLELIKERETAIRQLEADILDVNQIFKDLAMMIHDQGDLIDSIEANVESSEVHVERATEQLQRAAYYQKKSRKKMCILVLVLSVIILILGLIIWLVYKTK
UniProt Q8N3J3: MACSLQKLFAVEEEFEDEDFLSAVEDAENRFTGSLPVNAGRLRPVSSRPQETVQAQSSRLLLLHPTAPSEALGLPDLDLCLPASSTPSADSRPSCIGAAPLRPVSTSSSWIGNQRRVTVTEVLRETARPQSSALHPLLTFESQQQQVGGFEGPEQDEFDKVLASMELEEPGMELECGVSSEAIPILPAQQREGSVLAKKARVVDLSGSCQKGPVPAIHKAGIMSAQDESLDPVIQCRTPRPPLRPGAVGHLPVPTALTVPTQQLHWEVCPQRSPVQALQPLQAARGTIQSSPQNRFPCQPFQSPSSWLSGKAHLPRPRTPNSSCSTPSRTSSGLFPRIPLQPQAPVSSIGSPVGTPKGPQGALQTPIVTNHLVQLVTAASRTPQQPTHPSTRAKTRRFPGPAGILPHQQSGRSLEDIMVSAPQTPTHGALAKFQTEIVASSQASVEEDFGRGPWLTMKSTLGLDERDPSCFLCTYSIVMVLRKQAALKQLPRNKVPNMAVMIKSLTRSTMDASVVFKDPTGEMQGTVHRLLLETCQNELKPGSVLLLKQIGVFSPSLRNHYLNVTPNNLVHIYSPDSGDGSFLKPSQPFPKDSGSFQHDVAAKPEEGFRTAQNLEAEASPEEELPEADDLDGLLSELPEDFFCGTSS
UniProt Q8IWD4: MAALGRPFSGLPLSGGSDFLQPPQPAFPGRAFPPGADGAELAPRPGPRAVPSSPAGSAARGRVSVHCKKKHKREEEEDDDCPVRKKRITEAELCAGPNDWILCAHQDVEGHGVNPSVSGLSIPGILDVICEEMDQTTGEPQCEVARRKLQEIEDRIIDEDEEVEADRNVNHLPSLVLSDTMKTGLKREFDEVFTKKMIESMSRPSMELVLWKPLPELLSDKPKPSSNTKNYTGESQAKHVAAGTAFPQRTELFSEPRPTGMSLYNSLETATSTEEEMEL
UniProt Q8N3P4: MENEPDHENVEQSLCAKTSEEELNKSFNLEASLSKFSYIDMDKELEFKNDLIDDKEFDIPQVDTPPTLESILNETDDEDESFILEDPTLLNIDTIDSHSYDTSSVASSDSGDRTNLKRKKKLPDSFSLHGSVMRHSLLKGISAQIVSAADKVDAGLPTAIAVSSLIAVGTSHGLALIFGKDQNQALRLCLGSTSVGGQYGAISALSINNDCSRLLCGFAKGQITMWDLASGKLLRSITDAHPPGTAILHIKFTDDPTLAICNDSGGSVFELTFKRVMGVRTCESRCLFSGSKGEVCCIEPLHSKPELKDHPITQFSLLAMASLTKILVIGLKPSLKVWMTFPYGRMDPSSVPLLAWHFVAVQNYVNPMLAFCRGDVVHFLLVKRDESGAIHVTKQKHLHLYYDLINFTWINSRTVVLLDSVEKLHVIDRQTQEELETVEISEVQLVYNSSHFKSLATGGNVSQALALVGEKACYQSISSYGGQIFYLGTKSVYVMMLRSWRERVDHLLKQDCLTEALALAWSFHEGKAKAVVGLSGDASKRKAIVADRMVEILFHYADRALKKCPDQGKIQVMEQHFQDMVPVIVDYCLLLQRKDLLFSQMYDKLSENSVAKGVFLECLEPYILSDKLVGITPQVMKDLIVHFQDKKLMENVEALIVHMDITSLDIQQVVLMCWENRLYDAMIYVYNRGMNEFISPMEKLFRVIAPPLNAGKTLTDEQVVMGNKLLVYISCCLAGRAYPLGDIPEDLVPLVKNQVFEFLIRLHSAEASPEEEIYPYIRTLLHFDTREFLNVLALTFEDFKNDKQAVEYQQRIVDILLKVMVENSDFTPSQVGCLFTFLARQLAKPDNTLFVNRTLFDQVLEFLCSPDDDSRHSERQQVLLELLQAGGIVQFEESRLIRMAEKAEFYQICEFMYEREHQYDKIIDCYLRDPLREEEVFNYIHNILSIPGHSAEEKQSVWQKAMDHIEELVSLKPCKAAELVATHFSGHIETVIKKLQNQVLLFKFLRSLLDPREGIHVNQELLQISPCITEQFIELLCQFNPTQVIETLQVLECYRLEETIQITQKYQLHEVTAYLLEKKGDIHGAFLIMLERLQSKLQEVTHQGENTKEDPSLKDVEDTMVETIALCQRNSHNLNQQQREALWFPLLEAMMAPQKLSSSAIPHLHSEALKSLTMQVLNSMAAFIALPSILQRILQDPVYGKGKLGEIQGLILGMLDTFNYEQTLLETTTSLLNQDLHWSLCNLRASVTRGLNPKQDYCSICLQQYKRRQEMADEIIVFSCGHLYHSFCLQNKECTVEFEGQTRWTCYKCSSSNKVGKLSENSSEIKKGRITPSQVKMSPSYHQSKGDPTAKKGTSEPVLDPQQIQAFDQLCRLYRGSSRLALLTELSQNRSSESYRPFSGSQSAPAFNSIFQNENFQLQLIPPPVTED

These targets were tested with CN[C@@H]1C[C@H]2O[C@@](C)([C@@H]1OC)n1c3ccccc3c3c4c(c5c6ccccc6n2c5c31)C(=O)NC4 [staurosporine] (assay: log2 fold change of tryptic peptide abundance, ligand vs vehicle (limited proteolysis) (log2 ratio); higher = more trypsin-susceptible (destabilized)). Settings: ligand concentration: 20 uM; sample: K562 cleared lysate; digestion: 4 min, 22 C (HT-PELSA RT4min, Orbitrap Astral).
“ANKRD13A (peptide sequence: ELEEWELR, peptide start residue: 564) (UniProt Q8IZ07)” was tested, and the log2 fold change was 0.18.
For “FBXO11 (peptide sequence: NSMEGASTSTTENFGHR, peptide start residue: 117) (UniProt Q86XK2)”, the log2 fold change was -0.226.
Target “UniProt Q8IUF8 (peptide sequence: QLLLQVESTTVATRR, peptide start residue: 293)” has a log2 fold change of 0.37.
Work on “LMTK2 (peptide sequence: YFSPPPPAR, peptide start residue: 1448) (UniProt Q8IWU2)” yielded a log2 fold change of -0.366.
“STX12 (peptide sequence: LQENLQQLQHSTNQLAK, peptide start residue: 59) (UniProt Q86Y82)” was tested, and the log2 fold change was 0.149.
Work on “C17orf53 (peptide sequence: LRPVSSRPQETVQAQSSR, peptide start residue: 42) (UniProt Q8N3J3)” yielded a log2 fold change of -0.337.
“CCDC117 (peptide sequence: REEEEDDDCPVR, peptide start residue: 73) (UniProt Q8IWD4)” gave a log2 fold change of -0.796.
“VPS8 (peptide sequence: AVVGLSGDASKR, peptide start residue: 530) (UniProt Q8N3P4)” was tested, and the log2 fold change was -0.787.
